# Reference: PMC7862700
# The list shows a part of the results. The exact form of the protein is not confirmed.
# Biological target: T1, ELF2 (UniProt Q15723)
# T1 sequence: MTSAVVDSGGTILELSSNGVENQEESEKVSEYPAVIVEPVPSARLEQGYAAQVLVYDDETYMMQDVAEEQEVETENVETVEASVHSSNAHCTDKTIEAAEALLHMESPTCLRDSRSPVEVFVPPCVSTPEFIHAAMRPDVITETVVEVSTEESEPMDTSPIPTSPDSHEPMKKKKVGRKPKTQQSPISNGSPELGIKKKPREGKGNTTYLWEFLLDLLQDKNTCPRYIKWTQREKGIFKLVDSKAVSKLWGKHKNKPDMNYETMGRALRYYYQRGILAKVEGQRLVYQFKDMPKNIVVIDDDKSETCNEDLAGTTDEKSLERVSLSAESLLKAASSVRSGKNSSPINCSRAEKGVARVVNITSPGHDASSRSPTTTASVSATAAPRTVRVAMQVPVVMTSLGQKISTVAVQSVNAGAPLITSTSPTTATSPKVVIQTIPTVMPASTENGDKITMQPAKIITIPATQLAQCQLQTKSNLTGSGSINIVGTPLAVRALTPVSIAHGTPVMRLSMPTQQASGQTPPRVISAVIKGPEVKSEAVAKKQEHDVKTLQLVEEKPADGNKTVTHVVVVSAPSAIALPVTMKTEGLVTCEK
# Assay: DAPPL (digital affinity profiling via proximity ligation, sequencing)
# Conditions: 10 mM Tris-HCl pH 7.5, 50 mM NaCl, 1 mM DTT, 4% glycerol, room temperature, 30 min; GST-TFs on glutathione beads, 16-mer random dsDNA library, 0.1% …; high values mean tight binding; double strand, one strand shown; scale: fold enrichment (6-mer frequency, TF over GST control)
row,Sequence,binding signal
1,TGGCTT,1.22
2,ATCTAA,1.1
3,CCTAGA,0.959
4,ATGCAC,1.29
5,CTAAGC,1.02
6,CCTGGG,1.11
7,CTTGGA,1.13
8,AACAAA,1.18
9,TTACCG,1.25
10,AATTGT,1.33
11,AACGAC,1.1
12,CGATCT,1.21
13,TTTACA,1.2
14,TCGCGC,1.02
15,GATACT,1.13
16,CTATAA,1.19
17,CTAACG,1.09
18,AGAAAT,1.16
19,TTAAGT,1.19
20,CAATCC,1.18

row,Sequence,binding signal
1,ATGAAA,1.15
2,GGCTTC,1.94
3,GCTTAG,1.04
4,TCGCAA,1.06
5,ACCGAT,1.05
6,TCCCCA,1.32
7,CCCGCC,1.45
8,TCATTC,1.17
9,TCACAC,1.25
10,TATCTA,1.18
11,CTTCAA,1.27
12,AATAAC,1.34
13,CTGAGC,1.11
14,TATTAT,1.29
15,AAATAT,1.44
16,CAGGAT,1.25
17,GGATCC,1.14
18,CCACTT,2.15
19,CTCTTG,1.2

# 10 successive records already listed, quoted:
row,Sequence,binding signal
18,AGAAAT,1.16
19,TTAAGT,1.19
20,CAATCC,1.18
1,ATGAAA,1.15
2,GGCTTC,1.94
3,GCTTAG,1.04
4,TCGCAA,1.06
5,ACCGAT,1.05
6,TCCCCA,1.32
7,CCCGCC,1.45
